Test results taken from patent US20100297262A1, “[…] ACTIVE COMPOSITIONS COMPRISING OXIDATIVE STRESS MODULATORS (OSM), NEW CHEMICAL […], COMPOSITIONS AND USES” (COLBY PHARMACEUTICAL COMPANY, priority 2009, published 2010).

What was measured:
LNCaP cells [1] = test: DNA (Hoechst 33258) fluorescence cell growth assay, Example 12; type: cell-based, human; settings: for sensitivity to growth inhibition by SAHA: pretreatment with 20 μM Vitamin E
LNCaP cells [2] = test: LC-MS estimation of intracellular SAHA concentration; settings: pretreated with 1 nM R1881; 5 μM SAHA, within 24 hours
PC-3 cells = test: DNA fluorescence cell growth assay; settings: pretreatment with 20 μM Vitamin E

In the case of `O=C(CCCCCCC(=O)Nc1ccccc1)NO` [SAHA, Suberoylanilide hydroxamic acid], the IC50 (LNCaP cells [1]; Homo sapiens, LNCaP, read-out: IC50 of LNCaP cell growth inhibition) is reported as < 1000 nM, the “sensitivity to growth inhibition by SAHA” value (LNCaP cells [1]; androgen-treated LNCaP) is reported as “markedly sensitive to growth inhibition” and the “sensitivity to growth inhibition by SAHA” value (LNCaP cells [1]; androgen-untreated LNCaP) is reported as “markedly sensitive to growth inhibition”. The “intracellular SAHA level relative to R1881 untreated cells” value (LNCaP cells [2]) was “less than half and half” and the “sensitivity to growth inhibition by SAHA” value (PC-3 cells) was “markedly sensitive to growth inhibition”.
